PubChem BioAssay AID1259308, NCATS – 2017

- Screen: 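Candidate targets for better recombinant protein yield in mammalian cells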 (primary screen)
- Cells: human HEK293 embryonic kidney cells stably expressing firefly luciferase (HEK-CMV-Luc2-Hygro)
- Knock-down reagent: single siRNA against human genes, 0.8 pmol siRNA per well
- Duration: 72 h
- Measured: 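Reporter luminescence and viable-cell signal on separate replicate plates, given as percent of non-targeting control and median/MAD z-scores, plus per-cell luciferase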
- Scale: total luciferase, z-score: higher = more reporter protein produced
- Hit rule: 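Active when the median/MAD z-score for overall luciferase is greater than 3; a gene was taken forward for validation with new siRNAs if at least two of its three siRNAs passed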
- Calls: active = raised luciferase; inactive = no rise
Shown is one part, drawn at random, of about 59,000 deposited reagents. Over the whole deposit, about 1,510 (2.6%) were called active. 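Calls use total luciferase alone and ignore viability, so some active siRNAs may act by altering cell number.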 A number with no mark means an inactive call. Reagents against one gene are numbered here. Not all columns of the deposit are shown.

The first 3 records, to show the layout:
Gene	reagent	total luciferase, z-score
SALL3	1	-0.0145
SALL3	2	-1.01
SALL3	3	-1.15

Main list, from the start:
Gene	reagent	total luciferase, z-score
SALL3	1	-0.0145
SALL3	2	-1.01
SALL3	3	-1.15
OR3A3	1	2.97
OR3A3	2	0.268
OR3A3	3	-1.55
HSPA2	1	0.438
HSPA2	2	0.491
HSPA2	3	-0.453
IGSF5	1	-0.369
IGSF5	2	0.103
IGSF5	3	-0.278
ATP5MG	1	0.842
ATP5MG	2	-0.143
ATP5MG	3	0.272
GPR137	1	4.05 (active)
GPR137	2	0.0317
GPR137	3	1.5
MTMR1	1	-0.588
MTMR1	2	-0.517
MTMR1	3	-0.844
METTL21A	1	1.4
METTL21A	2	-0.158
METTL21A	3	0.282
